Results on 46 compounds are retold here after the supplement of paper PMC9226226.

Several values for one entry are separate records, joined by “and”; a condition that tells them apart may be missing. Equal entries are not always repeated. The list shows a part of the results. Several reference drugs read as weak here; read low effects with care.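 Prematurely aging human mesenchymal stem cells without the Werner syndrome gene were monitored by automated live-cell imaging over three biological repeats. The top twenty drugs for increasing growth versus vehicle moved forward; no fixed cutoff was specified.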

This assay has as its system Werner syndrome hMSCs (WRN-/-). As to the kind of experiment: relative cell density (fold change vs vehicle control); higher = more proliferation (geroprotective). Conditions: concentration (umol/L): 1, 6 days.

`CC(=O)[C@H]1CC[C@H]2[C@@H]3CC=C4C[C@@H](O)CC[C@]4(C)[C@H]3CC[C@]12C` came in with a relative cell density (vehicle: DMSO) of 1.13.

`COc1ccc(CC2c3cc(OC)c(OC)cc3CC[N+]2(C)CCC(=O)OCCCCCOC(=O)CC[N+]2(C)CCc3cc(OC)c(OC)cc3C2Cc2ccc(OC)c(OC)c2)cc1OC` (stereo unspecified): the relative cell density (vehicle: DMSO) stood at 0.948.

With `CC(C(=O)O)c1ccc2c(c1)CC(=O)c1ccccc1S2` (stereo unspecified), the relative cell density (vehicle: DMSO) was found to be 0.798.

The compound `Cc1nc(-c2ccc(OCC(C)C)c(C#N)c2)sc1C(=O)O` came in with a relative cell density (vehicle: DMSO) of 1.36.

Turning to `C[C@@H](O)[C@H]1C(=O)N2C(C(=O)[O-])=C(SC3Cn4cnc[n+]4C3)[C@H](C)[C@H]12` (stereo partly specified), where the note is “vehicle: Water”, the relative cell density came out at 0.925.

Turning to `C=C1/C(=C\C=C2/CCC[C@]3(C)[C@@H]([C@H](C)/C=C/[C@H](C)C(C)C)CC[C@@H]23)C[C@@H](O)C[C@@H]1O`, the relative cell density (vehicle: DMSO) worked out at 1.13.

On to `Cc1nnc(C(C)C)n1[C@H]1C[C@H]2CC[C@@H](C1)N2CC[C@H](NC(=O)C1CCC(F)(F)CC1)c1ccccc1`, for which the relative cell density (vehicle: DMSO) is 1.38.

`CCCCN1CCCCC1C(=O)Nc1c(C)cccc1C` (stereo unspecified) displayed a relative cell density (vehicle: DMSO) of 1.1.

The compound `COc1ccccc1OCC(O)COC(N)=O` (stereo unspecified) showed a relative cell density (vehicle: DMSO) of 0.96.

Consider `Nc1ccn([C@@H]2CS[C@H](CO)O2)c(=O)n1`, for which the relative cell density (vehicle: DMSO) is 1.06.

As for `CCc1c(Cl)c(O)c(Cl)c(O)c1C(=O)O[C@H]1[C@H](O)[C@H](OC)[C@H](OC/C2=C\C=C\C[C@H](O)/C(C)=C/[C@H](CC)[C@@H](O[C@@H]3OC(C)(C)[C@@H](OC(=O)C(C)C)[C@H](O)[C@@H]3O)/C(C)=C/C(C)=C/C[C@@H]([C@@H](C)O)OC2=O)O[C@@H]1C`, the relative cell density (vehicle: DMSO) amounted to 1.33.

The compound `COC(=O)Nc1nc2cc([S+]([O-])c3ccccc3)ccc2[nH]1` (stereo unspecified) yielded a relative cell density (vehicle: DMSO) of 1.17.

With `CO/N=C(\C(=O)N[C@@H]1C(=O)N2C(C(=O)OC(C)OC(C)=O)=C(COC(N)=O)CS[C@H]12)c1ccco1` (stereo partly specified), the relative cell density (vehicle: DMSO) was 1.09.

As to `COc1c(N2CCNC(C)C2)c(F)cc2c(=O)c(C(=O)O)cn(C3CC3)c12` (stereo unspecified), the relative cell density (vehicle: DMSO) was 0.985.

The compound `O=C(c1ccccc1)c1ccc2n1CCC2C(=O)O` (stereo unspecified) had a relative cell density (vehicle: DMSO) of 0.899.

In turn, `O=C(C[S+]([O-])Cc1ccco1)NC/C=C\COc1cc(CN2CCCCC2)ccn1` (stereo unspecified) returned a relative cell density (vehicle: DMSO) of 1.18.

The compound `C#CCC(Cc1cnc2nc(N)nc(N)c2n1)c1ccc(C(=O)N[C@@H](CCC(=O)O)C(=O)O)cc1` (stereo partly specified) showed a relative cell density (vehicle: DMSO) of 0.93.

For the compound `CN(C)CC(c1ccc(O)cc1)C1(O)CCCCC1` (stereo unspecified), the relative cell density (vehicle: DMSO) is 0.98 and 1.04.

Consider `NC(=O)[C@@H]1CCCN1C(=O)[C@H](Cc1c[nH]cn1)NC(=O)[C@@H]1CCC(=O)N1`, for which, under “vehicle: DMSO”, the relative cell density came out at 1.08.

For the setting “vehicle: Water”, `CCN[C@@H]1C[C@H](N)[C@@H](O[C@H]2OC(CN)=CC[C@H]2N)[C@H](O)[C@H]1O[C@H]1OC[C@](C)(O)[C@H](NC)[C@H]1O` had a relative cell density of 0.886.

`CC(C)(O)c1ccccc1CC[C@@H](SCC1(CC(=O)O)CC1)c1cccc(/C=C/c2ccc3ccc(Cl)cc3n2)c1`: where the note is “vehicle: DMSO”, the relative cell density turned out to be 1.01.

In turn, `O=C1NC(=O)C(c2ccccc2)(c2ccccc2)N1` gave a relative cell density (vehicle: DMSO) of 1.01.

Turning to `CN(C)C/C=C/C(=O)Nc1cc2c(Nc3ccc(F)c(Cl)c3)ncnc2cc1O[C@H]1CCOC1`, the relative cell density (vehicle: DMSO) was 0.703 and 0.344.

`Cc1ccc(-n2nc(C(C)(C)C)cc2NC(=O)Nc2ccc(OCCN3CCOCC3)c3ccccc23)cc1`: the relative cell density (vehicle: DMSO) worked out at 1.14.

In turn, `CCCCCCCCCCCC[N+](C)(C)CCOc1ccccc1` showed a relative cell density (vehicle: DMSO) of 0.872.

Consider `C=CC(=O)Nc1cccc(Oc2nc(Nc3ccc(N4CCN(C)CC4)cc3)nc3ccsc23)c1`, for which the relative cell density (vehicle: DMSO) was 0.955.

The compound `C[C@H](NC(=O)C(=O)Nc1ccccc1C(C)(C)C)C(=O)N[C@@H](CC(=O)O)C(=O)COc1c(F)c(F)cc(F)c1F` registered a relative cell density (vehicle: DMSO) of 1.05.

On to `CN(C)CC/C=C1/c2ccccc2COc2ccc(CC(=O)O)cc21`, for which the relative cell density (vehicle: DMSO) amounted to 0.975.

Consider `CC[C@H](C)C[C@H](C)CCCCCCCCC(=O)N[C@H]1C[C@@H](O)[C@@H](NCCN)NC(=O)[C@@H]2[C@@H](O)CCN2C(=O)[C@H]([C@H](O)CCN)NC(=O)[C@H]([C@H](O)[C@@H](O)c2ccc(O)cc2)NC(=O)[C@@H]2C[C@@H](O)CN2C(=O)[C@H]([C@@H](C)O)NC1=O`, for which the relative cell density (vehicle: Water) amounted to 1.27.

`CN(C)Cc1ccc(S(=O)(=O)n2ccc(/C=C/C(=O)NO)c2)cc1` registered a relative cell density (vehicle: DMSO) of 0.529.

In turn, `C[C@@H]1COC(Nc2ccc3ncnc(Nc4ccc(OCc5nccs5)c(Cl)c4)c3c2)=N1` came in with a relative cell density (vehicle: DMSO) of 0.976.

Consider `C#C[C@]1(O)CC[C@H]2[C@@H]3CCC4=CC(=O)CC[C@@H]4[C@H]3CC[C@@]21CC`, for which the relative cell density (vehicle: DMSO) came out at 1.

On to `CC(=O)OCC(=O)[C@H]1CC[C@H]2[C@@H]3CCC4=CC(=O)CC[C@]4(C)[C@H]3CC[C@]12C`, for which the relative cell density (vehicle: DMSO) came out at 1.14.

For `CCCOc1ccc(C(=O)OCCN(CC)CC)cc1N`, under “vehicle: DMSO”, the relative cell density turned out to be 1.03.

Where the note is “vehicle: DMSO”, `CN1C2CCC1CC(OC(=O)C(O)c1ccccc1)C2` (stereo unspecified) had a relative cell density of 1.18.

In the case of `CC[C@@H](CO)NCCN[C@@H](CC)CO`, the relative cell density (vehicle: DMSO) was 1.29.

Consider `C[C@]1(Cn2ccnn2)[C@H](C(=O)O)N2C(=O)C[C@H]2S1(=O)=O`, for which, where the note is “vehicle: DMSO”, the relative cell density was determined as 1.03.

In the case of `c1cn2cc(-c3ccc4cn[nH]c4c3)nc(Nc3ccc(N4CCOCC4)cc3)c2n1`, the relative cell density (vehicle: DMSO) was determined as 1.01.

As for `O=C1CCC(N2C(=O)c3ccccc3C2=O)C(=O)N1` (stereo unspecified), where the note is “vehicle: DMSO”, the relative cell density was 0.918.

Consider `CCCCc1nc(Cl)c(CO)n1Cc1ccc(-c2ccccc2-c2nnn[nH]2)cc1`, for which the relative cell density (vehicle: DMSO) amounted to 1.16.

Consider `CC1(C)S[C@@H]2[C@H](NC(=O)Cc3ccccc3)C(=O)N2[C@H]1C(=O)O`, for which the relative cell density (vehicle: DMSO) is 0.964 and 1.36.

`Cc1nc2n(c(=O)c1CCN1CCC(c3noc4cc(F)ccc34)CC1)CCCC2O` (stereo unspecified) came in with a relative cell density (vehicle: Water) of 1.12.

`CC(=O)OCC1=C(C(=O)O)N2C(=O)[C@@H](NC(=O)Cc3cccs3)[C@H]2SC1` came in with a relative cell density (vehicle: DMSO) of 1.5.

Under “vehicle: DMSO”, `Clc1ccc(C(Cn2ccnc2)OCc2csc3c(Cl)cccc23)c(Cl)c1` (stereo unspecified) gave a relative cell density of 1.

For the setting “vehicle: DMSO”, `CCOc1ccc(NC(=O)CC(C)O)cc1` (stereo unspecified) had a relative cell density of 1.16.

In turn, `C[C@H]1[C@H](OC(=O)CCC(=O)O)O[C@@H]2O[C@@]3(C)CC[C@H]4[C@H](C)CC[C@@H]1[C@@]24OO3` had a relative cell density (vehicle: DMSO) of 0.659.
